Assay results as given in paper PMC4914112.
Results are given in words; binding and its absence hold for the method and conditions named. For some of these results: In cells and extracts the contact can be indirect. Some binding calls cover weakened binding; strength is not graded here.

Protein sequences, listed by entry. Tags and fused reporters are not part of them.
UniProt P19525: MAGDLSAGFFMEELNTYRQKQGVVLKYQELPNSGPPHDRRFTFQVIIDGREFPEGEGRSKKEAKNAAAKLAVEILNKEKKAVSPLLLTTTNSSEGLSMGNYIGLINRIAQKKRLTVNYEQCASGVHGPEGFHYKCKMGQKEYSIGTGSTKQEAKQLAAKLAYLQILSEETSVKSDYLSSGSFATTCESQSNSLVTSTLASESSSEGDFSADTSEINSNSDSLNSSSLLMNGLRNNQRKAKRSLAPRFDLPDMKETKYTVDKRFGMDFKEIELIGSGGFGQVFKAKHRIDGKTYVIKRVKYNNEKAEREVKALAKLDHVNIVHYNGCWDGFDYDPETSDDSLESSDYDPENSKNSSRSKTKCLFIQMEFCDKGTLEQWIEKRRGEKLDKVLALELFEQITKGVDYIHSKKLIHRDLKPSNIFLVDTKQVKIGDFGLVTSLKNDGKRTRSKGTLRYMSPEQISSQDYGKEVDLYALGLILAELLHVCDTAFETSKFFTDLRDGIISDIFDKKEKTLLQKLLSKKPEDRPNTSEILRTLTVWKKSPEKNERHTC
UniProt O95793: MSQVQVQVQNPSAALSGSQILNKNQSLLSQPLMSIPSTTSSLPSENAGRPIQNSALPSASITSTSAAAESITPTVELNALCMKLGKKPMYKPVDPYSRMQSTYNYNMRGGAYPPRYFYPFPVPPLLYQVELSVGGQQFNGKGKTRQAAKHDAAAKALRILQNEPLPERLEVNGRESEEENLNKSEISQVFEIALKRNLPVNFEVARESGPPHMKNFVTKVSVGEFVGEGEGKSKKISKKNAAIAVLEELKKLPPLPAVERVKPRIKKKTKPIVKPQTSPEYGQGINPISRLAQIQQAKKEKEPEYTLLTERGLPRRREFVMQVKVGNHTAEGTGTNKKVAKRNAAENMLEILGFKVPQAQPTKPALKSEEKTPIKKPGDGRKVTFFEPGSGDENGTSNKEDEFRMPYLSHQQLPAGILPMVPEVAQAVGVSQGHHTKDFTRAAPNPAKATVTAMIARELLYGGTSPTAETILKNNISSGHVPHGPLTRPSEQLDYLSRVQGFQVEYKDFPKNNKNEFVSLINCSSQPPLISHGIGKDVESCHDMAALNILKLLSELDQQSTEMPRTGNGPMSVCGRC

What was measured:
[1] = target: protein kinase R (PKR), endogenous in JFH1 HCV-infected Huh7.5 cells (human (endogenous in Huh7.5)) (UniProt P19525); experiment: co-IP; lysate (50 μg) of JFH1 HCV-infected Huh7.5 cells, benzonase treated; 2 μg primary antibody, protein A/G Plus agarose, overnight at 4°C; lysis and wash buffer 50 mM Tris-HCl pH 7.4, 150 mM NaCl, 1% Triton X-100; western blot; IgG isotype control
[2] = target: recombinant PKR (pPET-PKR/λPP) (UniProt P19525); experiment: co-IP; IP on a mixture of purified recombinant proteins (200 ng each protein); immunoblot; IgG control; both purified
[3] = target: Staufen1 (Stau1), endogenous in JFH1 HCV-infected Huh7.5 cells (human (endogenous in Huh7.5)) (UniProt O95793); experiment: co-IP; lysate (50 μg) of JFH1 HCV-infected Huh7.5 cells, benzonase treated; 2 μg primary antibody, protein A/G Plus agarose, overnight at 4°C; lysis and wash buffer 50 mM Tris-HCl pH 7.4, 150 mM NaCl, 1% Triton X-100; western blot; IgG isotype control
[4] = target: recombinant His-tagged Stau1 (pET28a-Stau1) (human) (UniProt O95793); experiment: co-IP; IP on a mixture of purified recombinant proteins (200 ng each protein); immunoblot; IgG control; both purified

“Staufen1 (Stau1), endogenous in JFH1 HCV-infected Huh7.5 cells (from UniProt O95793 1-577)” was tested, and the binding [1] was “binds”.

For “recombinant His-tagged Stau1 (pET28a-Stau1) (from UniProt O95793 1-577)”, the binding [2] was “binds”.

With “protein kinase R (PKR), endogenous in JFH1 HCV-infected Huh7.5 cells (from UniProt P19525 1-551)” the binding [3] was “binds”.

With “recombinant PKR (pPET-PKR/λPP) (from UniProt P19525 1-551) (enzyme)” the binding [4] was “binds”.
